Experiment [1] has as its target cynomolgus monkey L1CAM-His (cynomolgus monkey). Briefly: BLI, soluble cynomolgus monkey L1CAM-His. (In BLI a coated tip is dipped into the sample, and binding shifts an interference pattern.)
Experiment [2] deals with human L1CAM overexpressed on HEK293T cells (human) (UniProt P32004). Briefly: flow cytometry, HEK293T cells overexpressing human L1CAM.
Experiment [3] addresses human L1CAM-His (extracellular domain of human L1CAM, isoform 1, fused to a poly-histidine tag) (human) (UniProt P32004). The experiment can be described thus: BLI, soluble human L1CAM-His.

Amino acid sequences for entries named in this document (tags omitted). A change or cut given only in a name is not applied to a line headed by its entry.
UniProt P32004: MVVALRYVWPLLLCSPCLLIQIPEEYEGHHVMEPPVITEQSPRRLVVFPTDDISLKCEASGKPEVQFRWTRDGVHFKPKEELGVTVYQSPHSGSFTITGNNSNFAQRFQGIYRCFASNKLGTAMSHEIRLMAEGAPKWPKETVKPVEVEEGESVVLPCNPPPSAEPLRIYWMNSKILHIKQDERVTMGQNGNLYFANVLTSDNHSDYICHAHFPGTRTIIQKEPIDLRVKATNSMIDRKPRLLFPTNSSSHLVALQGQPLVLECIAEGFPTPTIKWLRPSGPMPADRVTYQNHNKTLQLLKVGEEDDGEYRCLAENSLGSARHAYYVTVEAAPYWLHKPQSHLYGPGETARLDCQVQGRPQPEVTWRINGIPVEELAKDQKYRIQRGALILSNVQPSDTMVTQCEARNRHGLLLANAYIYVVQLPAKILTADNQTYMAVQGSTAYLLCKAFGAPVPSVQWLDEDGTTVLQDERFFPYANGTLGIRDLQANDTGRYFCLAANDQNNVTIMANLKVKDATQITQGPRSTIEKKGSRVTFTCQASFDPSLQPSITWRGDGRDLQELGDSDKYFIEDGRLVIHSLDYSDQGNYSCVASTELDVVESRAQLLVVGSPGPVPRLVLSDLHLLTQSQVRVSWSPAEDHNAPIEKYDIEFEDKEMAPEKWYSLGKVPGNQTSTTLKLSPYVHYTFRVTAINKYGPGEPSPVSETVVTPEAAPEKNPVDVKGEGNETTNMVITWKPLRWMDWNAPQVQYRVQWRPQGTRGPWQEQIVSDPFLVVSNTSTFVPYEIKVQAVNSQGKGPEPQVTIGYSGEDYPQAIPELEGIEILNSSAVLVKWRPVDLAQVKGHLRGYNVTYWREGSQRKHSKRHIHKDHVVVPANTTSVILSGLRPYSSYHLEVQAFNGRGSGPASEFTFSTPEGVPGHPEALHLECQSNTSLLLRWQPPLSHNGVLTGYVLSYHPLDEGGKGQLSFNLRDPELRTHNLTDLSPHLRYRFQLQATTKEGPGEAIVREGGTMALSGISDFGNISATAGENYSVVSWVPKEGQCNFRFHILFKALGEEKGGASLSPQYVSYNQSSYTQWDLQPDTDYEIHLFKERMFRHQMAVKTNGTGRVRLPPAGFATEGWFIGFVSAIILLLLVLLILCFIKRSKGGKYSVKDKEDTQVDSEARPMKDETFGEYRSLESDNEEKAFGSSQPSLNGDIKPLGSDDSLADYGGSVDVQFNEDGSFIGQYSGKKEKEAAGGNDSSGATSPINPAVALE

Results are given in words; binding and its absence hold for the method and conditions named. Some results given as binding are weak or reduced against the parent protein; the word gives no strength.

B1: 13G04 (antibody, V domains shown)
VH: QVQLVQSGAEVKKPGASVKVSCKASGYTFIGYYLHWVRQAPGQGLEWMGWINPNSGGTNSAQKFQGRVTMTRDTSISTTYMDLSRLRSDDTAVYYCARGGLERRDAFDIWGQGTLVTVSS
VL: DIQMTQSPSTLSASVGDRVTITCRASQSISNWLAWYQQKPGKAPNLLIYKASSLESGVPSRFSGSGSGTEFTLTISSLQPDDFATYYCQQYDTYRTFGQGTKVEIK
As for B1, in experiment [1], the binding entry was “binds”.

B2: 14A10 (antibody, V domains shown)
VH: EVQMVESGGGLVQPGGSLRLSCAAPGFIFSSYNMNWVRQAPGKGLEWVSYISSSSSTTYYADSVKGRFTISRDNAKNSLYLQMNSLRDEDTAVYYCASLYSGYDYYYYYGMDVWGQGTTVTVSS
VL: DIVMTQTPLSSPVSLGQPASISCRSSQSLVHSDGNTYLSWLQQRPGQPPRVLIYKISKRFSGVPDRFSGSGAGTDFTLKISRVEAEDVGVYYCMQATQFPFTFGPGTKVDIK
As for B2, in experiment [1], the binding entry is “binds”.

B3: 13F04 (antibody, V domains shown)
VH: QVQLQQPGAELVKPGASVKLSCKASGYIFISYWMHWVKQRPGQGLEWIGEINPRNGRTNYNEKFKSKATLTVDKSSSTAYMQLTSLTSEDSAVYYCARGGDYGGSFDYWGQGTTLTVSS
VL: DIVLTQSPASLAVSLGQRATISCRASESVDSYGNSFMHWYQQKPGQPPKLLIYRASNLESGIPARFSGSGSRTDFTLTVNPVEADDVATYYCQQSNEDPWTFGGGTKLEIK
As to B3, the binding entry in experiment [1] is reported as “binds”.

B4: 143G03 (antibody, V domains shown)
VH: QVQLRQSGAELVRPGTSVKMSCKASGYTFTNYYIHWVKQRPGQGLEWIGKIGPGSGSPYYNGMFKDKATLTVDTSSSTAYMQLSSLTSEDSAVYFCARWLLPFDYWGQGTTLTVSS
VL: QIVLSQSPGILSASPGEKVTMTCRASSSVNYMHWYQQKSGSSPKPWIFATSILASGVPPRFSGSGSGTSYSLTISSVEAEDTATYYCQQFSSDPLTFGAGTKLELK
For the molecule B4, the binding entry in experiment [2], in experiment [1] and in experiment [3] was “binds” each time.
